Results are given in words; binding and its absence hold for the method and conditions named. In cells and extracts the contact can be indirect. Some results given as binding are weak or reduced against the parent protein; the word gives no strength.
Biological target: βTRCP1-Flag (UniProt Q9Y297)
Assay: co-IP; anti-Flag IP of βTRCP1-Flag from whole cell extracts of transfected UPCISCC154 (HPV-positive) and UMSCC18 (HPV-negative) cells treated with 5 μM MG132 overnight; E1A lysis buffer (50 mM HEPES pH 7, 250 mM NaCl, 0.1% NP-40), antibody o/n at 4 °C; immunoblot for SMAD4

Chains of the proteins cited; added tags and fusions are not shown.
UniProt Q9Y297: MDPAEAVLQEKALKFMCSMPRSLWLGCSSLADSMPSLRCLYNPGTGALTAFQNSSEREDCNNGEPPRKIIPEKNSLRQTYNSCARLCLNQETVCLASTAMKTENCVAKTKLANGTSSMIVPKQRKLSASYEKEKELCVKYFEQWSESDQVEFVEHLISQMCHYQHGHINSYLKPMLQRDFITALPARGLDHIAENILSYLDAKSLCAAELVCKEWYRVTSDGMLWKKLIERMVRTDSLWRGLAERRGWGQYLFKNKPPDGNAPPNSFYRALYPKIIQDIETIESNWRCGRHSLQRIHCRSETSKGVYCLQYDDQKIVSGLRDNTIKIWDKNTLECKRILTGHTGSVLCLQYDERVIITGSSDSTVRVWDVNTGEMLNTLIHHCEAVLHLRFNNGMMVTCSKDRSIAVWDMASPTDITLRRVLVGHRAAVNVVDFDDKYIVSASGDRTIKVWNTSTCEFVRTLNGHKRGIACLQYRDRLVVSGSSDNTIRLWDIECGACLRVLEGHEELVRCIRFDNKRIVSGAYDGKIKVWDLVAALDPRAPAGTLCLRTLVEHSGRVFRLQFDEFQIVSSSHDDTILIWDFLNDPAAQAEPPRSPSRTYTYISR
UniProt Q13485: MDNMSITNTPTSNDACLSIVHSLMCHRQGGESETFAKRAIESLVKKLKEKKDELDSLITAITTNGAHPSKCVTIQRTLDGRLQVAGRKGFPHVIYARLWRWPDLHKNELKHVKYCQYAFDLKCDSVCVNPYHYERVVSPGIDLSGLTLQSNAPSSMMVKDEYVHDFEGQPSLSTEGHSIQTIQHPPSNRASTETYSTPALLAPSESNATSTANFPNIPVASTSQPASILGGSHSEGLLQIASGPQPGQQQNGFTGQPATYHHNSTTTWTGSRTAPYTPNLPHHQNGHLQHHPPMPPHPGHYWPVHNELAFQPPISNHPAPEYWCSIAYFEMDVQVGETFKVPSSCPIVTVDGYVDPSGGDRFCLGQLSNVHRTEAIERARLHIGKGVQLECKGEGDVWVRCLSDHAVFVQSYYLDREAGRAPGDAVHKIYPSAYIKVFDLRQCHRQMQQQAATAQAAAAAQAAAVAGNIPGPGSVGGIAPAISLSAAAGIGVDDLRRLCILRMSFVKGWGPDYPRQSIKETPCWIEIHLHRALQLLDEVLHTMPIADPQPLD

binding: binds
Substance: SMAD4 (from UniProt Q13485 1-552)

Reference: paper PMC8830113
